Assay results taken from publication doi:10.1101/2025.05.09.653063 (bioRxiv, 2025).
Substitutions are numbered along the chain they refer to. Results are given in words; binding and its absence hold for the method and conditions named. For part of these data: In cells and extracts the contact can be indirect. Some binding calls cover weakened binding; strength is not graded here. For part of these data: Where a sequence is shown, tags or fusion partners need not be part of it. One block for each binder: values may come before it.

Key:
[1] = target: PsmA purified from E. coli (Saccharolobus islandicus REY15A) (UniProt C3MQ43); assay: focused ion beam electron microscopy
[2] = target: T1, His-tagged PsmA T213E (Saccharolobus islandicus REY15A) (UniProt C3MQ43); assay: pull-down
T1 sequence: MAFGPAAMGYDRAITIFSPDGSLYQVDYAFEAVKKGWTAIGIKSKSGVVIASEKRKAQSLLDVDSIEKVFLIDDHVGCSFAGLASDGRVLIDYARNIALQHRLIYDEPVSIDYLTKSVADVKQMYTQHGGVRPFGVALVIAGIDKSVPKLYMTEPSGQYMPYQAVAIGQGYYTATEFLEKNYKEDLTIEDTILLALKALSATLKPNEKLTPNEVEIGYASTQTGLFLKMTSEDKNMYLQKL

[3] = target: T2, His-tagged wild type PsmA (Saccharolobus islandicus REY15A) (UniProt C3MQ43); assay: pull-down
T2 sequence: T1 sequence with E213T

- binding [1]: binds
B1: PsmA purified from E. coli (protein, UniProt C3MQ43 1-241)
chain: T1 sequence with E213T

- binding [2]: binds weakly
- binding [3]: binds
B2: proteasome α subunit (PsmA), genome-encoded, non-tagged (protein, UniProt C3MQ43 1-241)
chain: T1 sequence with E213T
